This is one part of the list.
What was measured:
Experiment in all cases: log2 fold change, soluble protein after heating vs DMSO (PISA); higher = thermal stabilisation; K562 lysate, 10 uM; active = over 0.2 and 3.5 SD of the protein, either way, in both replicates (recomputed)
pictilisib = compound: CS(=O)(=O)N1CCN(Cc2cc3nc(-c4cccc5[nH]ncc45)nc(N4CCOCC4)c3s2)CC1 [pictilisib]
Method in brief: (§1)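 The values are log-two fold changes in thermal stability compared with solvent controls and come from duplicates. They were obtained by TMTpro 16plex LC-MS/MS, with channel sums equalised, on the supernatant after 21,000xg for 90 min. That supernatant came from crude K562 extract at 1 mg/mL protein treated with 10 μM compound for 30 min, heated for 3 min across 48°C-58°C, pooled and brought to 0.5% NP-40 at 4°C.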

Amino acid sequences for entries named in this document (tags omitted). A change or cut given only in a name is not applied to a line headed by its entry.
UniProt Q9NWS1: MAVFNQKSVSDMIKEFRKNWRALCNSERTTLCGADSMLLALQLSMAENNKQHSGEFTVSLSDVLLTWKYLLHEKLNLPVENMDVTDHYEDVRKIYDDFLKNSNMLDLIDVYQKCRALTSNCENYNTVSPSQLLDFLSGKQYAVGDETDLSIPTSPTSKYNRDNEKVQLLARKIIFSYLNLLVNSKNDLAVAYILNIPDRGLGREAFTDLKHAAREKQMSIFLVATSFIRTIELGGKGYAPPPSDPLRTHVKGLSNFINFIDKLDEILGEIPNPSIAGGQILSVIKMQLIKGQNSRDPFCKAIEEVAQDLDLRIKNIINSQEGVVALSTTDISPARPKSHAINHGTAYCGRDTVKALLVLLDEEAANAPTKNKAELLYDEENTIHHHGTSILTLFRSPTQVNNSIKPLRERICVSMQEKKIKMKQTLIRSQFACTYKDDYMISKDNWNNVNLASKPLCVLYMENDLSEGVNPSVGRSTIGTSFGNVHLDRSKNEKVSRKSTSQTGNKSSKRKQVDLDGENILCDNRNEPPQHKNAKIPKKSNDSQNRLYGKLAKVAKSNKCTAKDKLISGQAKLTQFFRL
UniProt Q13608: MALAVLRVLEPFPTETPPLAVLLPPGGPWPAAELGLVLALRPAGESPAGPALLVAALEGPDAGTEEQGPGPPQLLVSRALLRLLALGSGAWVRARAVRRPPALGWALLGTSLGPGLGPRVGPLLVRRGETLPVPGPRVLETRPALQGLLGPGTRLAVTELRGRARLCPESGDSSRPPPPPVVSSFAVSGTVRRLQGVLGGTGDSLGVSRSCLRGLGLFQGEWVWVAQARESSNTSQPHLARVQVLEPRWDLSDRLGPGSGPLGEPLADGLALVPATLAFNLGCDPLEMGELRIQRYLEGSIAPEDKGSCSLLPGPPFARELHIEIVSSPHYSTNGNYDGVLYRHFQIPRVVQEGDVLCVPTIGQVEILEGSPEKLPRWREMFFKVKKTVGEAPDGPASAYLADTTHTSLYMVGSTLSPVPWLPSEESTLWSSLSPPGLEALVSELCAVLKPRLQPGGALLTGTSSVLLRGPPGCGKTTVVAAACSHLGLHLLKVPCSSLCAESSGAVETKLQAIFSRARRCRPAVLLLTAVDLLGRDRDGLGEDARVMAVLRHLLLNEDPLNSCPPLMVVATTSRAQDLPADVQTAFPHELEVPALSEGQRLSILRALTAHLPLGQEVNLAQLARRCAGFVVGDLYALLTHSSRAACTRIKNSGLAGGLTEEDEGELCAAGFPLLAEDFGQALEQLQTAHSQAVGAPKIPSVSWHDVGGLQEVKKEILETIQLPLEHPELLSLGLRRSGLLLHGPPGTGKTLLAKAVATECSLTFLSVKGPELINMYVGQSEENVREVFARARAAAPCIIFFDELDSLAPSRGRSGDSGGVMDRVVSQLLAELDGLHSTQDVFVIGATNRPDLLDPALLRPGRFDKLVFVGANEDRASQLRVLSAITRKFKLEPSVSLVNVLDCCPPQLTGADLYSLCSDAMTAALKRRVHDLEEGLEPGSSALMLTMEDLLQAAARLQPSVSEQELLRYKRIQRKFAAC
UniProt P35558, whole entry, looked up: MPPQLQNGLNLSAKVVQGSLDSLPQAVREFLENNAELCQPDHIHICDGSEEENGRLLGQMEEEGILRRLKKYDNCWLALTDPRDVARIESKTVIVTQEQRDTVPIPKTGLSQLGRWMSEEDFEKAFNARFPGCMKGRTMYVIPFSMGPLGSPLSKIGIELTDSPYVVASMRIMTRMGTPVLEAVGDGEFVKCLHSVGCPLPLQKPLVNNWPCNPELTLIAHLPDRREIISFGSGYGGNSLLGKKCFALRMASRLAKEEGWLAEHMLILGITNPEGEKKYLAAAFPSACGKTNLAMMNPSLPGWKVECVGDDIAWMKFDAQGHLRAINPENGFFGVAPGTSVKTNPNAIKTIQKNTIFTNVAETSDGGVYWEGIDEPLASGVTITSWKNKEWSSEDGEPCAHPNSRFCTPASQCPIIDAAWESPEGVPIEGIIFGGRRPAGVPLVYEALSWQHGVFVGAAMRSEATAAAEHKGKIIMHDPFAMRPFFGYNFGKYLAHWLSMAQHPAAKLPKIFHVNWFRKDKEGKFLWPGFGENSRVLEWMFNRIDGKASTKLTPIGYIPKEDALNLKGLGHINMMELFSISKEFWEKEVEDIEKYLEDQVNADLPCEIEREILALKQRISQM
UniProt Q9NV79: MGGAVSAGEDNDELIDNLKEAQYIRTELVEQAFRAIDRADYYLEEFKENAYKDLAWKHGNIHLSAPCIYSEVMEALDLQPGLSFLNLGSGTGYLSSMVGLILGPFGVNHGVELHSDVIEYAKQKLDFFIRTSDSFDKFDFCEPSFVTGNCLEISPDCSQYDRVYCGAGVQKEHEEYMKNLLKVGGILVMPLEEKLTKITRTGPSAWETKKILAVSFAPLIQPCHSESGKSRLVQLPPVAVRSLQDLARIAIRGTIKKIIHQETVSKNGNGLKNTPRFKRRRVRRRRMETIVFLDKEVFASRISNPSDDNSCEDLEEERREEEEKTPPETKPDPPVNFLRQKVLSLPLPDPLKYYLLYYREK
UniProt Q15004: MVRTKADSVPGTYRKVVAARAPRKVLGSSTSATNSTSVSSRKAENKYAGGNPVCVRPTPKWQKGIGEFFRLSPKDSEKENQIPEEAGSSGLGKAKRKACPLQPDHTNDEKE
UniProt P56589: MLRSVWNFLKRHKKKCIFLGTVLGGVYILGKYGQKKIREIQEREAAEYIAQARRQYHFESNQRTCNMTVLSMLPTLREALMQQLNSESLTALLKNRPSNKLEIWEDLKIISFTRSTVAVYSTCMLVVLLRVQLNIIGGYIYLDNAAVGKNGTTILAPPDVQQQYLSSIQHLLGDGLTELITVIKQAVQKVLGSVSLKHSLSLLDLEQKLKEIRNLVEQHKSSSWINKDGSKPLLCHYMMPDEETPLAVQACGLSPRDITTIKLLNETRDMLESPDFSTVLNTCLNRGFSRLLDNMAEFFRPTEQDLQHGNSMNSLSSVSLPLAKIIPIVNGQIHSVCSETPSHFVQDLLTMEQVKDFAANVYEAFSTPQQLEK
UniProt O43933: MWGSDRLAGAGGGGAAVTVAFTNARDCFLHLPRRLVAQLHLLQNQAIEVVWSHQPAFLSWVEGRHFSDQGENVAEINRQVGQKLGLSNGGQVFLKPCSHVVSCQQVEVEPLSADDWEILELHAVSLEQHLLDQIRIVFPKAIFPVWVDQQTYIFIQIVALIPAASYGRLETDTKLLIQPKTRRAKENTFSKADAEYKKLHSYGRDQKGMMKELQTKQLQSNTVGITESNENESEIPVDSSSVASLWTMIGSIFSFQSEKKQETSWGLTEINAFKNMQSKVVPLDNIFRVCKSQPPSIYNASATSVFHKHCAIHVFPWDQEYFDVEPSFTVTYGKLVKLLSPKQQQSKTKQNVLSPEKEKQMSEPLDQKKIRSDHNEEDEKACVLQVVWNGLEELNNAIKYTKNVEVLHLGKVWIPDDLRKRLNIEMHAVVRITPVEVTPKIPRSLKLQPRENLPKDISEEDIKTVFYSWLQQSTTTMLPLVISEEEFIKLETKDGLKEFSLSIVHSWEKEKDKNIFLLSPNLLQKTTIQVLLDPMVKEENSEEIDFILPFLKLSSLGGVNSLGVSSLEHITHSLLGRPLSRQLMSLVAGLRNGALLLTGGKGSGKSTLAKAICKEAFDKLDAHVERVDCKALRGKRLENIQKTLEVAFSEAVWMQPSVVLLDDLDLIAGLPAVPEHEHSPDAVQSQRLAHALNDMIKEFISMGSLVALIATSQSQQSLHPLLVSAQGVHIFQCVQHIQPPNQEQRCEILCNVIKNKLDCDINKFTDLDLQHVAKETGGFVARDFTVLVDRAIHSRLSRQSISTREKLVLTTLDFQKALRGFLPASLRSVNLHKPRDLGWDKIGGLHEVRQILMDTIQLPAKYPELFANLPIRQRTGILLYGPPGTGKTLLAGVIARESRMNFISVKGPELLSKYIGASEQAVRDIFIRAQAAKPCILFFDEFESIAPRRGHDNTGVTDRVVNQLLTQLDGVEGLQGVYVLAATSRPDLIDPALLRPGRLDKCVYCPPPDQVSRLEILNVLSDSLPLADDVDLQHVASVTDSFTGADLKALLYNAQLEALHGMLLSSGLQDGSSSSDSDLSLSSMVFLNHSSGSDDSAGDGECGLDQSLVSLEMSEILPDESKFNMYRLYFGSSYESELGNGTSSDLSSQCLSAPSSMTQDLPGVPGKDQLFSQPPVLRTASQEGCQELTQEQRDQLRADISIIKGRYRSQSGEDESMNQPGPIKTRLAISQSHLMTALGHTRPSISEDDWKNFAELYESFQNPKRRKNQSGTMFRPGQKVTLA
UniProt O00623: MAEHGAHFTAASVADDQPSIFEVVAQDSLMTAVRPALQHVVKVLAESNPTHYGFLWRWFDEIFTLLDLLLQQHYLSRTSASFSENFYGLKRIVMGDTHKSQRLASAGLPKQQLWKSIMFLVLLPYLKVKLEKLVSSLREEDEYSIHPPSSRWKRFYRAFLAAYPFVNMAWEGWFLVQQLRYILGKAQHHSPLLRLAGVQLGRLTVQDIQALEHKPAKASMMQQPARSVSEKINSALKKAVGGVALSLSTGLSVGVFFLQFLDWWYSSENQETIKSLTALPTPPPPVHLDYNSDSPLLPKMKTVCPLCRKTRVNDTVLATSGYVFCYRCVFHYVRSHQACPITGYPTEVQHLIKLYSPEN
UniProt P27815: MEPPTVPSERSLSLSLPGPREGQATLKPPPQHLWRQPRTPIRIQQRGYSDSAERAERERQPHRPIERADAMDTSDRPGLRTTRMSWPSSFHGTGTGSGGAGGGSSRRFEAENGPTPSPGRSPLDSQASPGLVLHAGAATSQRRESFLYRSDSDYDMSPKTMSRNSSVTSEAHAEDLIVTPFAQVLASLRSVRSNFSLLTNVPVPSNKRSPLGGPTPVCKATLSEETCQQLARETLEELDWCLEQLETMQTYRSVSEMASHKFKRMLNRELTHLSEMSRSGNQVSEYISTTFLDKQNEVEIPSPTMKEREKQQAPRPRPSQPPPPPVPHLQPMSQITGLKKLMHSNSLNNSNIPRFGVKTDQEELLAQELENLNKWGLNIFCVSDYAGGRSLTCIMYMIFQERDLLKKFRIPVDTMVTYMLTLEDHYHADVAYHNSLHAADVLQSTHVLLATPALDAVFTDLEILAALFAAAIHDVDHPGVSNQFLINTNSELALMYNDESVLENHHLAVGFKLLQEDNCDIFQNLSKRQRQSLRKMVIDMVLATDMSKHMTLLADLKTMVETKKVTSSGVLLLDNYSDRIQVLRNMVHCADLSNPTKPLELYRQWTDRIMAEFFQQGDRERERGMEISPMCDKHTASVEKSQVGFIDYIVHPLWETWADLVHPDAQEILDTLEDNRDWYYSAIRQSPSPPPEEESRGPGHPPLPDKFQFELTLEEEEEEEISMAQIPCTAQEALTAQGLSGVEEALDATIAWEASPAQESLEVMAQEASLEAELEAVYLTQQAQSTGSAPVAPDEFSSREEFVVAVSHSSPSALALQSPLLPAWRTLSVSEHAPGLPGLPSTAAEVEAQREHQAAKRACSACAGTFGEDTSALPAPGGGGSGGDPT
UniProt Q9BSM1: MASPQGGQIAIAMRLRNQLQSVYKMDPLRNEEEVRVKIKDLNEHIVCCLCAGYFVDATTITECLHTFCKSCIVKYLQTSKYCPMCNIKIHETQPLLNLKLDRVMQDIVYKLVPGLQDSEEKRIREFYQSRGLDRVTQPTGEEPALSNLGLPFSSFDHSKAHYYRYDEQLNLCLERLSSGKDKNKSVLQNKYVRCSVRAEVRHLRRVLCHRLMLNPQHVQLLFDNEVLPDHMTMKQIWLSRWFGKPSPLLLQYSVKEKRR
UniProt Q8N8D1: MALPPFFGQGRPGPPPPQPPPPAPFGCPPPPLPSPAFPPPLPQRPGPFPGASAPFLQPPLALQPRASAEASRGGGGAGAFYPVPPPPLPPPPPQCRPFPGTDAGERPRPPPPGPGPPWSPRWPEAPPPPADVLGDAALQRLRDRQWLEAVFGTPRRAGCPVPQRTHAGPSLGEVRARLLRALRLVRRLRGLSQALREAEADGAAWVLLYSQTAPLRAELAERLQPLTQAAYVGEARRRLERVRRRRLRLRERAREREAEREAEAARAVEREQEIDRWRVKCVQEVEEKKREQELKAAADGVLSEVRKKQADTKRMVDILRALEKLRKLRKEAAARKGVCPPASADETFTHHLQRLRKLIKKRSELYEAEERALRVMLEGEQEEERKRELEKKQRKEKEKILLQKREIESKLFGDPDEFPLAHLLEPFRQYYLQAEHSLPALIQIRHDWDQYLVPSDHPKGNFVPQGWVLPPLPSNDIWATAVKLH
UniProt Q9UBM1: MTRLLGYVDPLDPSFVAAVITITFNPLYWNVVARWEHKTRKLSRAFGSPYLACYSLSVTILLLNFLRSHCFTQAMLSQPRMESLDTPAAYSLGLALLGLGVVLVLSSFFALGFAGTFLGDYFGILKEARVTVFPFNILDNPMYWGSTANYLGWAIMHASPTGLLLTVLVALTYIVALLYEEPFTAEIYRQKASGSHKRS

crizotinib = compound: C[C@@H](Oc1cc(-c2cnn(C3CCNCC3)c2)cnc1N)c1c(Cl)ccc(F)c1Cl [crizotinib]
Method in brief: as §1

doramapimod = compound: Cc1ccc(-n2nc(C(C)(C)C)cc2NC(=O)Nc2ccc(OCCN3CCOCC3)c3ccccc23)cc1 [doramapimod]
Method in brief: as §1

bafetinib = compound: Cc1ccc(NC(=O)c2ccc(CN3CC[C@H](N(C)C)C3)c(C(F)(F)F)c2)cc1Nc1nccc(-c2cncnc2)n1 [bafetinib]
Method in brief: as §1

quisinostat = compound: Cn1cc(CNCC2CCN(c3ncc(C(=O)NO)cn3)CC2)c2ccccc21 [quisinostat]
Method in brief: as §1

[1] = compound: NC(=O)Nc1cc(-c2cccc(F)c2)sc1C(=O)N[C@H]1CCCNC1
Method in brief: as §1

[2] = compound: NC1(c2ccc(-c3nc4ccn5c(=O)[nH]nc5c4cc3-c3ccccc3)cc2)CCC1
Method in brief: as §1

duvelisib = compound: C[C@H](Nc1ncnc2nc[nH]c12)c1cc2cccc(Cl)c2c(=O)n1-c1ccccc1 [duvelisib]
Method in brief: as §1

tozasertib = compound: Cc1cc(Nc2cc(N3CCN(C)CC3)nc(Sc3ccc(NC(=O)C4CC4)cc3)n2)n[nH]1 [tozasertib]
Method in brief: as §1

nilotinib = compound: Cc1cn(-c2cc(NC(=O)c3ccc(C)c(Nc4nccc(-c5cccnc5)n4)c3)cc(C(F)(F)F)c2)cn1 [nilotinib]
Method in brief: as §1

[3] = compound: Cc1nc(Nc2n[nH]c3c2CN(C(=O)N[C@H](CN(C)C)c2ccccc2)C3(C)C)c2sccc2n1
Method in brief: as §1

dasatinib = compound: Cc1nc(Nc2ncc(C(=O)Nc3c(C)cccc3Cl)s2)cc(N2CCN(CCO)CC2)n1 [dasatinib]
Method in brief: as §1

[4] = compound: Cc1ncc(-c2ccnc(Nc3ccc(S(C)(=O)=O)cc3)n2)n1C(C)C
Method in brief: as §1

[5] = compound: Cn1cc(-c2ccc3c(c2)CCN3C(=O)Cc2cccc(C(F)(F)F)c2)c2c(N)ncnc21
Method in brief: as §1

tipifarnib = compound: Cn1cncc1[C@@](N)(c1ccc(Cl)cc1)c1ccc2c(c1)c(-c1cccc(Cl)c1)cc(=O)n2C [tipifarnib]
Method in brief: as §1

[6] = compound: C[C@H](C1=CC=C(C=C1)C(=O)NC2=C3C=CNC3=NC=C2)N
Method in brief: as §1

gandotinib = compound: Cc1cc(Nc2cc(CN3CCOCC3)c3nc(C)c(Cc4ccc(Cl)cc4F)n3n2)n[nH]1 [gandotinib]
Method in brief: as §1

[7] = compound: Cc1cccc(CC(=O)N2CCc3c2ccc(-c2cn(C)c4ncnc(N)c24)c3F)n1
Method in brief: as §1

lapatinib = compound: CS(=O)(=O)CCNCc1ccc(-c2ccc3ncnc(Nc4ccc(OCc5cccc(F)c5)c(Cl)c4)c3c2)o1 [lapatinib]
Method in brief: as §1

[8] = compound: NC(=O)c1cnc(N[C@@H]2CCCC[C@@H]2N)nc1Nc1cccc(-n2nccn2)c1
Method in brief: as §1

Measured: log2 fold change

PDE8A (UniProt O60658)
inactive: pictilisib 0.132 | crizotinib 0.028 | doramapimod -0.121 | bafetinib 0.109 | quisinostat 0.104 | [1] -0.022 | [2] -0.142

PCBP2 (UniProt F8W0G4)
inactive: pictilisib 0.087 | duvelisib 0.358 | tozasertib -0.069 | bafetinib -0.223 | nilotinib 0.034 | [3] -0.092 | dasatinib -0.138 | [4] -0.154 | [5] 0 | tipifarnib -0.298 | [2] 0.053

PARPBP (UniProt Q9NWS1)
inactive: pictilisib -0.215 | [6] -0.177 | duvelisib -0.028 | gandotinib 0.087 | tozasertib -0.011 | bafetinib 0.004 | [7] 0.045 | nilotinib -0.246 | [3] 0.269 | dasatinib 0 | [4] 0.104 | [5] -0.002 | tipifarnib 0.117 | [2] -0.025

PEX6 (UniProt Q13608)
inactive: pictilisib 0.18 | [6] -0.051 | duvelisib -0.031 | gandotinib 0.069 | tozasertib 0.073 | bafetinib 0.011 | [7] 1.34 | dasatinib 0.062 | [5] 0.043 | [2] -0.09

PCK1 (UniProt P35558)
inactive: lapatinib -0.084 | pictilisib -0.11 | [6] -0.896 | gandotinib 0.363 | bafetinib -0.095 | [7] 0.711 | [8] 0.037

PDCD6 isoform 2 (UniProt O75340)
inactive: [6] 0.025 | gandotinib -0.077 | [7] 0.031

PEX5 (UniProt J3KPV0)
inactive: tozasertib 0.19

Two entries picked at random from the list so far, as already listed:
PDCD6 isoform 2 (UniProt O75340)
inactive: [6] 0.025 | gandotinib -0.077 | [7] 0.031

PEX5 (UniProt J3KPV0)
inactive: tozasertib 0.19

Continued:

PCMTD2 (UniProt Q9NV79)
inactive: crizotinib 0.104 | tozasertib 0.253 | doramapimod 0.006 | quisinostat -0.08 | [1] 0.137 | [2] 0.115

PCBP2 (UniProt F8VRH0)
inactive: lapatinib -0.148 | crizotinib 0.023 | [6] -0.116 | gandotinib -0.042 | doramapimod -0.01 | [7] 0.072 | nilotinib -0.221 | [3] -0.532 | [4] -0.063 | quisinostat 0.034 | tipifarnib -0.167 | [1] -0.059 | [8] 0.232 | [2] 0.003

PER2 (UniProt O15055)
inactive: [6] -0.333 | gandotinib -0.18 | [7] -0.201

PGAP2 isoform 2 (UniProt Q9UHJ9)
inactive: tozasertib -0.085

PFN3 (UniProt P60673)
inactive: lapatinib -0.199 | crizotinib -0.046 | [6] -0.458 | gandotinib 0.119 | tozasertib 0.155 | doramapimod 0.083 | [7] 0.193 | nilotinib -0.104 | [3] 0.001 | [4] 0.033 | quisinostat -0.349 | tipifarnib -0.083 | [1] -0.044 | [8] -0.087

PDP1 isoform 2 (UniProt Q9P0J1)
inactive: duvelisib 0.009 | tozasertib -0.022 | dasatinib 0.018 | [5] -0.028 | [2] -0.224

PCMTD1 (UniProt Q96MG8)
inactive: tozasertib 0.051

PCLAF (UniProt Q15004)
inactive: pictilisib 0.015 | crizotinib 0.024 | [6] -0.079 | duvelisib 0.037 | gandotinib 0.108 | tozasertib -0.029 | doramapimod 0.009 | bafetinib -0.01 | [7] 0.05 | nilotinib -0.115 | [3] 0.081 | dasatinib 0.001 | [4] 0.02 | [5] -0.087 | quisinostat -0.044 | tipifarnib 0.018 | [1] -0.018 | [2] 0.094

PEX3 (UniProt P56589)
inactive: lapatinib -0.148 | crizotinib -0.114 | [6] -0.188 | duvelisib 0.011 | gandotinib -0.061 | tozasertib 0.24 | doramapimod 0.046 | [7] -0.093 | dasatinib 0.039 | [5] -0.13 | quisinostat -0.002 | [1] 0.026 | [8] 0.022

PDIK1L (UniProt Q8N165)
inactive: duvelisib 0.141 | dasatinib -0.05 | [5] 0.118

PEX1 (UniProt O43933)
inactive: lapatinib -0.088 | crizotinib -0.074 | tozasertib -0.314 | doramapimod -0.037 | quisinostat -0.068 | [1] 0.082 | [8] -0.065

PEX12 (UniProt O00623)
inactive: lapatinib -0.039 | [6] -0.353 | gandotinib -0.155 | [7] -0.069 | [8] -0.064

PDE3B (UniProt Q13370)
inactive: [6] 0.091 | duvelisib 0.101 | gandotinib 0.139 | [7] -0.019 | dasatinib 0.013 | [5] -0.095

PER1 (UniProt O15534)
inactive: crizotinib -0.027 | [6] -0.046 | duvelisib -0.418 | gandotinib 0.035 | doramapimod 0.06 | [7] 0.095 | dasatinib -0.038 | [5] 0.154 | quisinostat 0.096 | [1] -0.023

PDE4A (UniProt P27815)
inactive: pictilisib -0.083 | crizotinib 0.022 | [6] -0.177 | duvelisib 0.16 | gandotinib 0.055 | tozasertib -0.021 | doramapimod 0.035 | bafetinib -0.073 | [7] -0.018 | nilotinib -0.277 | [3] -0.065 | dasatinib -0.005 | [4] 0.134 | [5] 0.198 | quisinostat -0.126 | tipifarnib 0.027 | [1] 0.061 | [2] -0.116

PEAK1 (UniProt Q9H792)
inactive: pictilisib 0.048 | crizotinib 0.059 | [6] 0.111 | duvelisib -0.111 | gandotinib -0.114 | doramapimod -0.049 | bafetinib -0.03 | [7] 0.001 | nilotinib 0.005 | [3] -0.047 | dasatinib -0.014 | [4] 0.013 | [5] 0.079 | quisinostat 0.011 | tipifarnib -0.116 | [1] 0.001 | [2] 0.115

PDIA4, A0A499FI48
active: [6] 1.32
inactive: crizotinib -0.063 | duvelisib -0.101 | gandotinib -0.18 | doramapimod -0.039 | [7] -0.154 | dasatinib -0.004 | [5] 0.044 | quisinostat -0.02 | [1] 0.164

PCGF1 (UniProt Q9BSM1)
inactive: [6] -0.167 | duvelisib -0.083 | gandotinib 0.143 | tozasertib -0.108 | [7] 0.235 | dasatinib 0.023 | [5] 0.005 | [2] -0.311

PDE4DIP (UniProt E9PS60)
active: [6] -0.688
inactive: crizotinib -0.034 | duvelisib -0.077 | gandotinib 0.233 | tozasertib -0.026 | doramapimod 0.075 | [7] 0.147 | nilotinib -0.074 | [3] 0.052 | dasatinib -0.158 | [4] -0.045 | [5] -0.073 | quisinostat -0.256 | tipifarnib 0.081 | [1] -0.205 | [2] -0.025

PCM1 isoform 5 (UniProt Q15154)
inactive: crizotinib -0.132 | tozasertib 0.024 | doramapimod -0.042 | quisinostat -0.074 | [1] 0.087

PDCD7 (UniProt Q8N8D1)
inactive: crizotinib -0.096 | tozasertib 0.105 | doramapimod 0.202 | quisinostat 0.031 | [1] 0

PEMT isoform 2 (UniProt Q9UBM1)
inactive: lapatinib 0.118 | [6] -0.125 | gandotinib -0.163 | [7] -0.354 | [8] -0.32

— the supplement of paper PMC10849652
